{"sequences": {"note": "Protein sequences, listed by entry. Tags and fused reporters are not part of them.", "UniProt Q9UNN5": "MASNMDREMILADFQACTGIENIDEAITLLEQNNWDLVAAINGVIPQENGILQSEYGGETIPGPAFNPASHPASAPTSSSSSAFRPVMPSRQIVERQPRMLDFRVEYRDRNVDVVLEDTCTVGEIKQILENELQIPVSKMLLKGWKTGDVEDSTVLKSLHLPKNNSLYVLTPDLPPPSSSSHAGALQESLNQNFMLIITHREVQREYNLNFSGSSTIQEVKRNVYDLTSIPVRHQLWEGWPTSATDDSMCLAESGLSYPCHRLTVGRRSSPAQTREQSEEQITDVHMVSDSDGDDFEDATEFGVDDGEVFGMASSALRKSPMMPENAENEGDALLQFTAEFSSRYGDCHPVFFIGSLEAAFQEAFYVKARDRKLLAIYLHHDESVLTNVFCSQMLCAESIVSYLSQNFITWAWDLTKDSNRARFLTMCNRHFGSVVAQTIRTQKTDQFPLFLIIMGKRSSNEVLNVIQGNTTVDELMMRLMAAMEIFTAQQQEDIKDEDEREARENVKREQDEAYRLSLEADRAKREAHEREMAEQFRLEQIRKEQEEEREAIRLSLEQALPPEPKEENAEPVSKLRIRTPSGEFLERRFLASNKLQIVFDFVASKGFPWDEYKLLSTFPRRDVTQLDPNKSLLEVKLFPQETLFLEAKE"}, "source": "paper PMC6709923", "target": "Fas-associated factor 1 (endogenous, HEK293) (human (endogenous in HEK293)) (UniProt Q9UNN5)", "assay": "affinity purification with mass spectrometry; large-scale cultured HEK293 cells lysed in RIPA buffer; anti-FAF1 antibody overnight at 4°C, protein A/G agarose; washed with 1% nonidet P-40; bands cut from a Coomassie-stained gel, Q-TOF", "note": "These are yes or no findings as the source states them, for the method shown. Binding seen in cells or lysates may run through a third protein. These calls come from enrichment with a bait or labelling near it, and not all partners need be listed.", "data": [{"binder": "NADPH oxidase activator 1 (endogenous, HEK293) (protein, UniProt Q86UR1 1-476) MASLGDLVRAWHLGAQAVDRGDWARALHLFSGVPAPPARLCFNAGCVHLLAGDPEAALRAFDQAVTKDTCMAVGFFQRGVANFQLARFQEALSDFWLALEQLRGHAAIDYTQLGLRFKLQAWEVLHNVASAQCQLGLWTEAASSLREAMSKWPEGSLNGLDSALDQVQRRGSLPPRQVPRGEVFRPHRWHLKHLEPVDFLGKAKVVASAIPDDQGWGVRPQQPQGPGANHDARSLIMDSPRAGTHQGPLDAETEVGADRCTSTAYQEQRPQVEQVGKQAPLSPGLPAMGGPGPGPCEDPAGAGGAGAGGSEPLVTVTVQCAFTVALRARRGADLSSLRALLGQALPHQAQLGQLSYLAPGEDGHWVPIPEEESLQRAWQDAAACPRGLQLQCRGAGGRPVLYQVVAQHSYSAQGPEDLGFRQGDTVDVLCEVDQAWLEGHCDGRIGIFPKCFVVPAGPRMSGAPGRLPRSQQGDQP", "values": [{"measurement": "binding", "value": "binds"}]}]}
